# The structures given here were assigned with low confidence; some may be wrong.
# By UniProt entry, the sequences of proteins in these tests, tags left out.
# UniProt P42336, whole entry: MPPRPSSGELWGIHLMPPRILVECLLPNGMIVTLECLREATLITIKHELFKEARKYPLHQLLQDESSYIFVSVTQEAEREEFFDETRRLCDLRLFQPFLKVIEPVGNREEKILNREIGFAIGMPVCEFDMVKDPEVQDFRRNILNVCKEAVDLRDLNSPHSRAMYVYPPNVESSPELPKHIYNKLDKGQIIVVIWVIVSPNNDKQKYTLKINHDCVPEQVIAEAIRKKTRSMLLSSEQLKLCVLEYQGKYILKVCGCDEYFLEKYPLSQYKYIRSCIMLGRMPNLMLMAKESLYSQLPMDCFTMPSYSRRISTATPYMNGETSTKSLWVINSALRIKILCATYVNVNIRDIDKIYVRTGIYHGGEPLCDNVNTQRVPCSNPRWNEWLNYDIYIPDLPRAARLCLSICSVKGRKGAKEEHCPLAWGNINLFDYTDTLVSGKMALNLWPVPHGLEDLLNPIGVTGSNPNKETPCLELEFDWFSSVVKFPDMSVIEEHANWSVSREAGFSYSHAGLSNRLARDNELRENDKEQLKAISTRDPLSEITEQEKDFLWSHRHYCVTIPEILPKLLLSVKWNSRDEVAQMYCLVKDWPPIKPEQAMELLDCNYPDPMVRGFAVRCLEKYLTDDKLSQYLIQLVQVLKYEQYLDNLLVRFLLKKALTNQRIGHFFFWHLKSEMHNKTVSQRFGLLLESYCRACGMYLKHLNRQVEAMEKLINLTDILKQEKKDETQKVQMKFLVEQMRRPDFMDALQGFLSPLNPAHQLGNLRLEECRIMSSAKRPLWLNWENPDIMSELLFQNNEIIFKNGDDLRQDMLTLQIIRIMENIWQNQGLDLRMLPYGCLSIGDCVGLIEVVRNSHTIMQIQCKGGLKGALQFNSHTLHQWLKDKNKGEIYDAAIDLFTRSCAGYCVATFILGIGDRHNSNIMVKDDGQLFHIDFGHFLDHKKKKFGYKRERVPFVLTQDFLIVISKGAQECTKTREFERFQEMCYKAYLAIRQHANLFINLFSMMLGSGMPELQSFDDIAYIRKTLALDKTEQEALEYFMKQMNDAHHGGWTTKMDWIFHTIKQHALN
# UniProt P27986, whole entry partner: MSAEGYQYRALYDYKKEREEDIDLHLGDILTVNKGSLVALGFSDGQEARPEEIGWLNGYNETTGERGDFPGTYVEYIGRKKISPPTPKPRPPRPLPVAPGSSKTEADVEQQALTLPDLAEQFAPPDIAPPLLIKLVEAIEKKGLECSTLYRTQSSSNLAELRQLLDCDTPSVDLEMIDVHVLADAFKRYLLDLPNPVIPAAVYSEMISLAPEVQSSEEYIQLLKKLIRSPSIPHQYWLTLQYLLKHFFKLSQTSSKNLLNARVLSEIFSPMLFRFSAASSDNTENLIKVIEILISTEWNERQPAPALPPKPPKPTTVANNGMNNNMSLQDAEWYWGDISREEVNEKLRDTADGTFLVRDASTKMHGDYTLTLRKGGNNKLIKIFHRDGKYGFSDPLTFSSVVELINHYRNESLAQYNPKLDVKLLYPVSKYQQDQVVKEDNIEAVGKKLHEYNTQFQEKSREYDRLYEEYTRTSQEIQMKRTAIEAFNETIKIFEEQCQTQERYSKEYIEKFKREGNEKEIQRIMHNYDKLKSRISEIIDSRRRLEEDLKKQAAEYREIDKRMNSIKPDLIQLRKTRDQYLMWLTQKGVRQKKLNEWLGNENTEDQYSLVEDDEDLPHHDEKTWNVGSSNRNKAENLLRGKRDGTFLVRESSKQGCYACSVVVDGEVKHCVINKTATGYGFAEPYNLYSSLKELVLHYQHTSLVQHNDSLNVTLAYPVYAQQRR
# Target: PI3K (p110α/p85α) (Homo sapiens, UniProt P42336)
# Assay: PI3K Activity Assay (ADP Hunter Plus)
# Format: biochemical
# Conditions: read-out: PI3Kα IC50; quantitative results of Table 4
row,IC50 [nM],Compound
1,295,COCCCNC(=O)c1cn2cc(-c3cccnc3)nc(N3CCOCC3)c2n1
2,617,COCCNC(=O)c1cn2cc(-c3cccnc3)nc(N3CCOCC3)c2n1 [2-154]

# — US8778935B2 (Centro Nacional de Investigaciones Oncologicas (CNIO), priority 2009, dated 2014)
